Test results reported in paper doi:10.1101/411173.
Results are given in words; binding and its absence hold for the method and conditions named. In cells and extracts the contact can be indirect. Some entries that bind do so weakly or less than the wild type. For some of these results: Where a sequence is shown, tags or fusion partners need not be part of it.

Tests used:
[1] = molecular target: T1, His14-Sec61S353C (S. cerevisiae) (UniProt P32915); experiment: cross-linking
T1 sequence: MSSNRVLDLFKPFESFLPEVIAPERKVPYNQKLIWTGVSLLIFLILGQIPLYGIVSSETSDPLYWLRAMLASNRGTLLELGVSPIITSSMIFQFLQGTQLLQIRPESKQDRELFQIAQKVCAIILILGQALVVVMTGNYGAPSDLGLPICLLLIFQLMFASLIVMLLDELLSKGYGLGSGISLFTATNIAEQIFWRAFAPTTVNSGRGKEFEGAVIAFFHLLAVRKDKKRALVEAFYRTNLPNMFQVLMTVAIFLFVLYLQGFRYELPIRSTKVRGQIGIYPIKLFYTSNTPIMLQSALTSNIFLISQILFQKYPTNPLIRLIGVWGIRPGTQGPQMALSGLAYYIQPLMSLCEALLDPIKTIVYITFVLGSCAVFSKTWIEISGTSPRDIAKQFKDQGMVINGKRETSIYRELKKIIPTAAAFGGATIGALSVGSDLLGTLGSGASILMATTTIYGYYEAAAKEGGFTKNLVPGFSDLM

[2] = molecular target: T2, Sec61 (wildtype) (S. cerevisiae) (UniProt P32915); experiment: cross-linking
T2 sequence: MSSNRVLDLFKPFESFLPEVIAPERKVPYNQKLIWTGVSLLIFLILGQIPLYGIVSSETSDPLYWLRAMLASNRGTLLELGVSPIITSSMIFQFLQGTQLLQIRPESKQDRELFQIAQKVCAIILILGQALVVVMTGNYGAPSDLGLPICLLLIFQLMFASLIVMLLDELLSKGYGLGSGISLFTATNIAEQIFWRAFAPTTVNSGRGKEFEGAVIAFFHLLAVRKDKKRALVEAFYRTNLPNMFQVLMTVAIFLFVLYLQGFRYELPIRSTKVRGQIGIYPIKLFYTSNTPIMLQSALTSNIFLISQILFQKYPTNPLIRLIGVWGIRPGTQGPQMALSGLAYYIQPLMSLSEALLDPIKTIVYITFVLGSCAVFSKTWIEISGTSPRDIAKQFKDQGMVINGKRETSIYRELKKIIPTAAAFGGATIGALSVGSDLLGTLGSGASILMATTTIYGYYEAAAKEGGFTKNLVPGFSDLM

[3] = molecular target: T3, Sec61S353C (S. cerevisiae) (UniProt P32915); experiment: cross-linking
T3 sequence: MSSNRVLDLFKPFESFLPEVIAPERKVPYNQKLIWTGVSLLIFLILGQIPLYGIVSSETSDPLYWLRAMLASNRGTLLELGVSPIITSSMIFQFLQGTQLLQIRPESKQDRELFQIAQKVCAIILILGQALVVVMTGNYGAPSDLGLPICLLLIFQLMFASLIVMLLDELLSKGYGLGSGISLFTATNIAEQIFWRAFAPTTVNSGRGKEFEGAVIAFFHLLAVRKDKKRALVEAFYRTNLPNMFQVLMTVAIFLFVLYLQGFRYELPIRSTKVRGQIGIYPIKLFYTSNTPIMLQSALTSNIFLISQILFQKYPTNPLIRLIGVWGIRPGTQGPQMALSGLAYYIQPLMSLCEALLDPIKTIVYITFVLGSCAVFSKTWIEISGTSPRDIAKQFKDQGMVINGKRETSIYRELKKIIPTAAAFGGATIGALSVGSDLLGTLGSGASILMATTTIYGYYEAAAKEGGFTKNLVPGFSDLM

[4] = molecular target: T2, Sec61 (wildtype) (S. cerevisiae); experiment: cross-linking + co-IP
[5] = molecular target: T3, Sec61S353C (S. cerevisiae); experiment: cross-linking + co-IP

Row | Binder | binding [1] | binding [2] | binding [3] | binding [4] | binding [5]
1 | Sss1 (protein, UniProt P35179 1-80) MARASEKGEEKKQSNNQVEKLVEAPVEFVREGTQFLAKCKKPDLKEYTKIVKAVGIGFIAVGIIGYAIKLIHIPIRYVIV | binds | binds | binds |  | 
2 | Mpd1-HA (protein, UniProt Q12404 22-318) QNFYDSDPHISELTPKSFDKAIHNTNYTSLVEFYAPWCGHCKKLSSTFRKAAKRLDGVVQVAAVNCDLNKNKALCAKYDVNGFPTLMVFRPPKIDLSKPIDNAKKSFSAHANEVYSGARTLAPIVDFSLSRIRSYVKKFVRIDTLGSLLRKSPKLSVVLFSKQDKISPVYKSIALDWLGKFDFYSISNKKLKQLTDMNPTYEKTPEIFKYLQKVIPEQRQSDKSKLVVFDADKDKFWEYEGNSINKNDISKFLRDTFSITPNEGPFSRRSEYIAYLKTGKKPIKKNHSSSGNKHDEL |  |  |  | binds | binds
3 | Sec63 (protein, UniProt P14906 1-663) MPTNYEYDEASETWPSFILTGLLMVVGPMTLLQIYQIFFGANAEDGNSGKSKEFNEEVFKNLNEEYTSDEIKQFRRKFDKNSNKKSKIWSRRNIIIIVGWILVAILLQRINSNDAIKDAATKLFDPYEILGISTSASDRDIKSAYRKLSVKFHPDKLAKGLTPDEKSVMEETYVQITKAYESLTDELVRQNYLKYGHPDGPQSTSHGIALPRFLVDGSASPLLVVCYVALLGLILPYFVSRWWARTQSYTKKGIHNVTASNFVSNLVNYKPSEIVTTDLILHWLSFAHEFKQFFPDLQPTDFEKLLQDHINRRDSGKLNNAKFRIVAKCHSLLHGLLDIACGFRNLDIALGAINTFKCIVQAVPLTPNCQILQLPNVDKEHFITKTGDIHTLGKLFTLEDAKIGEVLGIKDQAKLNETLRVASHIPNLKIIKADFLVPGENQVTPSSTPYISLKVLVRSAKQPLIPTSLIPEENLTEPQDFESQRDPFAMMSKQPLVPYSFAPFFPTKRRGSWCCLVSSQKDGKILQTPIIIEKLSYKNLNDDKDFFDKRIKMDLTKHEKFDINDWEIGTIKIPLGQPAPETVGDFFFRVIVKSTDYFTTDLDITMNMKVRDSPAVEQVEVYSEEDDEYSTDDDETESDDESDASDYTDIDTDTEAEDDESPE | binds |  | binds |  | 
